Test results taken from the supplement of paper PMC10849652.
Some of the results follow.

Protein sequences, listed by entry. Tags and fused reporters are not part of them. Lines headed by an entry give the natural chain unless they say otherwise; changes in a name come on top.
UniProt Q9H2H8: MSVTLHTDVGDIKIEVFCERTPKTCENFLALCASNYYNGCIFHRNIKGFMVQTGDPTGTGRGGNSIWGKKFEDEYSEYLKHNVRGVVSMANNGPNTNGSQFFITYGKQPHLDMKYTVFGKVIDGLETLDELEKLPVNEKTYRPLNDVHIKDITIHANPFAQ
UniProt O75439: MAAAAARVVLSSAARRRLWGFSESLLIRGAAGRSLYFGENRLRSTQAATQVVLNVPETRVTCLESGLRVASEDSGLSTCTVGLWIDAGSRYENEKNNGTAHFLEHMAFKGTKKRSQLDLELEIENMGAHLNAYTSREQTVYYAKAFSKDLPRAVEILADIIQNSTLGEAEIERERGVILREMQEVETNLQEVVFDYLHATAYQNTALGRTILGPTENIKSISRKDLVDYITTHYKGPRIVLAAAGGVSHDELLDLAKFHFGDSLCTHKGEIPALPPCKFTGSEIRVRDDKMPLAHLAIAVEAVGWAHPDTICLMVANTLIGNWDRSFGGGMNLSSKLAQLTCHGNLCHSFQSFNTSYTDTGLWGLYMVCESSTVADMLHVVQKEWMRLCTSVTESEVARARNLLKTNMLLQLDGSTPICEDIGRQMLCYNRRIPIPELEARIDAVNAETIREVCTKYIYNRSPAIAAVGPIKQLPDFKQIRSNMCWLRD
UniProt Q10713: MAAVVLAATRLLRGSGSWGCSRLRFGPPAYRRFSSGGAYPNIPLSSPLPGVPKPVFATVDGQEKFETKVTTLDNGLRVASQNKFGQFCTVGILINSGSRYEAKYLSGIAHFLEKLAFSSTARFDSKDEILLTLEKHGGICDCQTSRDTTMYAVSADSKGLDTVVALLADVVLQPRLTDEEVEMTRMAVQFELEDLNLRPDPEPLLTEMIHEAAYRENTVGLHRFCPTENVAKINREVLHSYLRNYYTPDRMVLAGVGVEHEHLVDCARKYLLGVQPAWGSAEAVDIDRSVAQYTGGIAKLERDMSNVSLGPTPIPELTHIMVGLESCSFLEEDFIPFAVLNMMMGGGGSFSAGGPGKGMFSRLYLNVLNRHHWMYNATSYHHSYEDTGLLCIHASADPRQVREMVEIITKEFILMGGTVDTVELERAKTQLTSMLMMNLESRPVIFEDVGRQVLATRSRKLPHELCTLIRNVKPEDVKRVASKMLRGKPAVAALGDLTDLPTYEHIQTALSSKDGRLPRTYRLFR
UniProt Q9HCU8: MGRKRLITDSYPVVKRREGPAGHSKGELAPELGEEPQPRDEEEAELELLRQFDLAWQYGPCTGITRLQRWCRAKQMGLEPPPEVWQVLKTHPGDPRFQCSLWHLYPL
UniProt P0DPB5: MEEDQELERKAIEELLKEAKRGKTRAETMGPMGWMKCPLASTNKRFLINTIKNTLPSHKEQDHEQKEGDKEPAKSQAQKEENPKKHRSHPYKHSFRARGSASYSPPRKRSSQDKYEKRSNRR
UniProt Q8TD55: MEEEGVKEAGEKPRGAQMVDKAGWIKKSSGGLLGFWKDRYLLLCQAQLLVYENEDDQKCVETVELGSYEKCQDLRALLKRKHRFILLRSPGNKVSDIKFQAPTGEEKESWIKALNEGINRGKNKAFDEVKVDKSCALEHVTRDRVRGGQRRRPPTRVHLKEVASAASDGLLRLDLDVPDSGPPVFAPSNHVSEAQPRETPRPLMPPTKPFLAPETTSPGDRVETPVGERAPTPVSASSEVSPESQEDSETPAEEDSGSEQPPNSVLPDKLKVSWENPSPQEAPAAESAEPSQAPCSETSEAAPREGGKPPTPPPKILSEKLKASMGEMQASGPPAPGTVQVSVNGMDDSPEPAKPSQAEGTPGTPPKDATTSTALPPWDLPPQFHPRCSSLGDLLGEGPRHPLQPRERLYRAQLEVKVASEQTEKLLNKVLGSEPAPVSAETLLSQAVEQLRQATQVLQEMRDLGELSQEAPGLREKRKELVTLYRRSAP
UniProt Q8NBT0: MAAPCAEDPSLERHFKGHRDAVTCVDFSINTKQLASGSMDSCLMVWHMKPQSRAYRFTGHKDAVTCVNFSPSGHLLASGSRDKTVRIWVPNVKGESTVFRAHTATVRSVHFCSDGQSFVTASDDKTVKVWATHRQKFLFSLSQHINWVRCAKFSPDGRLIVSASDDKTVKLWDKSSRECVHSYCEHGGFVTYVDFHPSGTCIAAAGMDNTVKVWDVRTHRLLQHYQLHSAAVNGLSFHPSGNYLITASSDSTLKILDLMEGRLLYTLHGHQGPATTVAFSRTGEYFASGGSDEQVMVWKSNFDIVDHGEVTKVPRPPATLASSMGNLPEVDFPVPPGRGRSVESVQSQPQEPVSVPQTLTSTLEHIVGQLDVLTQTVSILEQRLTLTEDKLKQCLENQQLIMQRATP
UniProt A8CG34, whole entry, looked up: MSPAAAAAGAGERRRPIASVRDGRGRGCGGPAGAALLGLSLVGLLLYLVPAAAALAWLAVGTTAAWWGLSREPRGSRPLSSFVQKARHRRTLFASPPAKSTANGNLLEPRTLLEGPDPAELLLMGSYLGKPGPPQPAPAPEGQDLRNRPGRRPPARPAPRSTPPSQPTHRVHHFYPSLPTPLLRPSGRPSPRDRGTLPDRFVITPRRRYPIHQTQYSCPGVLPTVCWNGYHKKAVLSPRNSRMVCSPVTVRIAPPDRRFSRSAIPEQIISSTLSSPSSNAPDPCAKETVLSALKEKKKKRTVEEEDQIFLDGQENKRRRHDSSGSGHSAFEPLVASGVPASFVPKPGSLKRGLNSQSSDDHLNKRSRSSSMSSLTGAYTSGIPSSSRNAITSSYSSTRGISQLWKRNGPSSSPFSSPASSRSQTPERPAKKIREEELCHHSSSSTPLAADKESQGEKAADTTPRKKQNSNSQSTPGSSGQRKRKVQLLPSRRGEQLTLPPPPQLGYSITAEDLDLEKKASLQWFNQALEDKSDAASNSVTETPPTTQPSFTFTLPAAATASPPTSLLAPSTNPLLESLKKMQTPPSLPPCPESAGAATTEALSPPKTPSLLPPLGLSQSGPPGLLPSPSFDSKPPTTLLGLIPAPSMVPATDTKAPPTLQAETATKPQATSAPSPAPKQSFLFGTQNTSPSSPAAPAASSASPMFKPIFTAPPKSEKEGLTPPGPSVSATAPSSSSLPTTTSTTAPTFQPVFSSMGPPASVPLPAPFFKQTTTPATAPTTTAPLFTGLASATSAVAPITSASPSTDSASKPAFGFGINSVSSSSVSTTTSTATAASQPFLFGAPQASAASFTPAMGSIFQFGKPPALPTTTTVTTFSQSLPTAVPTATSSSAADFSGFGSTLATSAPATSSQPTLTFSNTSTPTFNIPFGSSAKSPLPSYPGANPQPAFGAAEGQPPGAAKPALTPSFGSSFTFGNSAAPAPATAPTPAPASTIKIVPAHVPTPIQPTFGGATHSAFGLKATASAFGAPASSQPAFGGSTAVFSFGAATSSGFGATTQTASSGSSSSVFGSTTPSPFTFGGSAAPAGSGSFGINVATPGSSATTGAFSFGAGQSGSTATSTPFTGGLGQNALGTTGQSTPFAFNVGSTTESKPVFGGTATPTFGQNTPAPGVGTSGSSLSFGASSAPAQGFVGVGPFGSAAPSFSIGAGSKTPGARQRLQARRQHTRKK

Key:
Test in all cases: log2 fold change, soluble protein after heating vs DMSO (PISA); higher = thermal stabilisation; K562 cells, 10 uM, 30 min; active = over 0.2 and 3.5 SD of the protein, either way, in both replicates (recomputed)
[1] = compound: COC1=CC=C(C=C1)CN2C=CC3=C2C=C(C=C3)C(=O)NO
Outline: (§1)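 Thermal stability values are relative to control samples and come from duplicates. They are expressed as log2 fold changes. For measurement, K562 cells (2×10^6 cells/mL) received 10 μM compound for 30 min, and aliquots were heated for 3 min over 48°C-58°C, pooled, and extracted at 4°C in PBS with 0.5% NP-40. Soluble protein, the supernatant after 21,000xg for 90 min, was quantified by TMTpro 16plex LC-MS/MS with equalised channel sums.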

filanesib = compound: CON(C)C(=O)N1N=C(c2cc(F)ccc2F)S[C@@]1(CCCN)c1ccccc1 [filanesib]
Outline: as §1

zotarolimus = compound: CO[C@H]1C[C@@H]2CC[C@@H](C)[C@@](O)(O2)C(=O)C(=O)N2CCCC[C@H]2C(=O)O[C@H]([C@H](C)C[C@@H]2CC[C@H](n3cnnn3)[C@H](OC)C2)CC(=O)[C@H](C)/C=C(\C)[C@@H](O)[C@@H](OC)C(=O)[C@H](C)C[C@H](C)/C=C/C=C/C=C/1C [zotarolimus]
Outline: as §1

idasanutlin = compound: COc1cc(C(=O)O)ccc1NC(=O)[C@@H]1N[C@@H](CC(C)(C)C)[C@](C#N)(c2ccc(Cl)cc2F)[C@H]1c1cccc(Cl)c1F [idasanutlin]
Outline: as §1

alisertib = compound: COc1cc(Nc2ncc3c(n2)-c2ccc(Cl)cc2C(c2c(F)cccc2OC)=NC3)ccc1C(=O)O [alisertib]
Outline: as §1

[2] = compound: COc1cc2nc(-c3cc(F)ccc3O)nc(N[C@@H]3CNC[C@H]3C(C)(C)O)c2cc1OC
Outline: as §1

gefitinib = compound: COc1cc2ncnc(Nc3ccc(F)c(Cl)c3)c2cc1OCCCN1CCOCC1 [gefitinib]
Outline: as §1

[3] = compound: COc1cccc2cc(-c3nc([C@H]4CC[C@H](C(=O)O)CC4)n4ncnc(N)c34)[nH]c12
Outline: as §1

lapatinib = compound: CS(=O)(=O)CCNCc1ccc(-c2ccc3ncnc(Nc4ccc(OCc5cccc(F)c5)c(Cl)c4)c3c2)o1 [lapatinib]
Outline: as §1

pictilisib = compound: CS(=O)(=O)N1CCN(Cc2cc3nc(-c4cccc5[nH]ncc45)nc(N4CCOCC4)c3s2)CC1 [pictilisib]
Outline: as §1

[4] = compound: CS(=O)(=O)c1ccc(-c2cnc(N)c(C(=O)Nc3ccccc3)n2)cc1
Outline: as §1

crizotinib = compound: C[C@@H](Oc1cc(-c2cnn(C3CCNCC3)c2)cnc1N)c1c(Cl)ccc(F)c1Cl [crizotinib]
Outline: as §1

[5] = compound: C[C@@H]1COCCN1C2=NC(=NC(=C2)C3(CC3)S(=O)(=O)C)C4=C5C=CNC5=CC=C4
Outline: as §1

[6] = compound: C[C@H](C1=CC=C(C=C1)C(=O)NC2=C3C=CNC3=NC=C2)N
Outline: as §1

gandotinib = compound: Cc1cc(Nc2cc(CN3CCOCC3)c3nc(C)c(Cc4ccc(Cl)cc4F)n3n2)n[nH]1 [gandotinib]
Outline: as §1

[7] = compound: Cc1cc(SCc2sc(-c3ccc(C(F)(F)F)cc3)nc2C)ccc1OCC(=O)O
Outline: as §1

doramapimod = compound: Cc1ccc(-n2nc(C(C)(C)C)cc2NC(=O)Nc2ccc(OCCN3CCOCC3)c3ccccc23)cc1 [doramapimod]
Outline: as §1

ispinesib = compound: Cc1ccc(C(=O)N(CCCN)[C@@H](c2nc3cc(Cl)ccc3c(=O)n2Cc2ccccc2)C(C)C)cc1 [ispinesib]
Outline: as §1

duvelisib = compound: C[C@H](Nc1ncnc2nc[nH]c12)c1cc2cccc(Cl)c2c(=O)n1-c1ccccc1 [duvelisib]
Outline: as §1

tozasertib = compound: Cc1cc(Nc2cc(N3CCN(C)CC3)nc(Sc3ccc(NC(=O)C4CC4)cc3)n2)n[nH]1 [tozasertib]
Outline: as §1

Measured: log2 fold change

POLR2D (UniProt O15514)
inactive: [1] 0.02 | filanesib 0.009 | zotarolimus -0.029 | idasanutlin -0.083 | alisertib -0.159 | [2] -0.021 | gefitinib -0.001 | [3] 0.043 | lapatinib 0.017 | pictilisib -0.026 | [4] 0.006 | crizotinib 0.192 | [5] -0.08 | [6] 0.038 | gandotinib 0.158 | [7] -0.068 | doramapimod -0.024 | ispinesib 0.017

PPIL3 isoform 2 (UniProt Q9H2H8)
inactive: [1] 0.301 | filanesib 0.027 | idasanutlin 0.124 | [2] 0.206 | gefitinib -0.12 | lapatinib 0.003 | pictilisib 0.032 | [4] -0.026 | crizotinib 0.061 | [5] 0.009 | duvelisib -0.051 | gandotinib -0.026 | tozasertib 0.105 | [7] 0.122 | doramapimod 0.032 | ispinesib -0.176

PMPCB (UniProt O75439)
inactive: [1] -0.046 | filanesib 0.036 | zotarolimus 0.047 | idasanutlin -0.122 | alisertib -0.078 | [2] 0.046 | gefitinib 0.006 | [3] 0.008 | lapatinib -0.054 | pictilisib -0.012 | [4] 0.012 | crizotinib 0.015 | [5] 0.054 | [6] -0.081 | gandotinib -0.096 | [7] -0.019 | doramapimod 0.009 | ispinesib -0.034

PMPCA (UniProt Q10713)
inactive: [1] -0.041 | filanesib 0.013 | zotarolimus 0.035 | idasanutlin -0.1 | alisertib -0.089 | [2] -0.02 | gefitinib 0.043 | [3] 0.009 | lapatinib -0.023 | pictilisib 0.018 | [4] 0.006 | crizotinib -0.014 | [5] 0.033 | [6] -0.07 | gandotinib -0.076 | [7] -0.011 | doramapimod 0.028 | ispinesib -0.043

POLD4 (UniProt Q9HCU8)
inactive: [1] -0.094 | zotarolimus 0.045 | idasanutlin 0.016 | alisertib -0.033 | [2] -0.01 | gefitinib -0.017 | [3] -0.05 | lapatinib 0.095 | pictilisib 0.169 | crizotinib 0.021 | [6] 0.057 | duvelisib 0.031 | gandotinib -0.113 | tozasertib -0.076 | [7] -0.066 | doramapimod 0.028 | ispinesib 0.031

POLR1D (UniProt P0DPB5)
inactive: [1] -0.197 | filanesib 0.262 | zotarolimus -0.053 | idasanutlin 0.03 | [2] -0.456 | lapatinib 0.331 | pictilisib -0.026 | [4] -0.131 | crizotinib 0.035 | [5] -0.101 | [6] 0.132 | gandotinib 0.107 | tozasertib 0.063 | doramapimod 0.064 | ispinesib -0.022

PLEKHO2 (UniProt Q8TD55)
inactive: [1] -0.07 | zotarolimus -0.106 | alisertib -0.087 | [2] 0.109 | gefitinib 0.022 | [3] 0.018 | lapatinib 0.069 | pictilisib 0.026 | crizotinib -0.068 | [6] 0.116 | gandotinib 0.004 | tozasertib -0.11 | doramapimod 0.056 | ispinesib -0.242

POC1A (UniProt Q8NBT0)
inactive: [1] -0.289 | zotarolimus -0.058 | idasanutlin 0.095 | alisertib -0.073 | [3] 0.304 | crizotinib -0.308 | [6] 0.234 | duvelisib -0.272 | tozasertib -0.041 | [7] 0.045 | doramapimod -0.044

POM121C (UniProt A8CG34)
inactive: [1] 0.023 | filanesib 0.024 | idasanutlin 0.487 | alisertib 0.198 | gefitinib 0.135 | [3] 0.165 | [4] 0.021 | crizotinib -0.275 | doramapimod 0.057 | ispinesib -0.071
